Assay results from publication PMC7665200, “Mus81-Mms4 endonuclease is an Esc2-STUbL-Cullin8 mitotic substrate impacting on genome integrity” (Nature Communications, 2020).
These are yes or no findings as the source states them, for the method shown. In cells and extracts the contact can be indirect. Some binding calls cover weakened binding; strength is not graded here. Where a sequence is shown, tags or fusion partners need not be part of it.

T1: GST-Esc2 (Saccharomyces cerevisiae, UniProt Q06340 1-456)
T1 construct: Esc2, Saccharomyces cerevisiae, full-length gene cloned into BamHI/SalI of pGEX-6P-2; pGEX-6P-2 should place GST at the N-terminus (surmised from the vector); also called recombinant glutathione S-transferase (GST)-Esc2; GST-tagged Esc2; source: E. coli BL21 (DE3), purified (glutathione-Sepharose 4B, eluted with reduced glutathione, dialysed)
T1 sequence (looked up): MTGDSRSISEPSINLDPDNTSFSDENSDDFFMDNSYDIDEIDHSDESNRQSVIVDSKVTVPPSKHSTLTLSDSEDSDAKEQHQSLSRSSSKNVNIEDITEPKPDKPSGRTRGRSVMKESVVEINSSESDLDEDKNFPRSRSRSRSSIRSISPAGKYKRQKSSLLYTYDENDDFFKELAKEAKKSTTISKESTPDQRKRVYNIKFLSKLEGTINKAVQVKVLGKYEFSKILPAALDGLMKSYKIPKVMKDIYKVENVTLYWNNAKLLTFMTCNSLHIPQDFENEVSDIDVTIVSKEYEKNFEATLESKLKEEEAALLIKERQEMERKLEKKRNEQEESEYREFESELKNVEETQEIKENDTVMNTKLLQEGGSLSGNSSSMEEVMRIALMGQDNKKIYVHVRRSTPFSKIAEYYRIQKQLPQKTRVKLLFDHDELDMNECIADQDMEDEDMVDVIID

T2: Mus81-Mms4 complex with internal truncations Mms4 (Δ541-555) and Mus81 (Δ121-135) (S. cerevisiae (W303-derived yeast)) (UniProt P38257+Q04149)
T2 sequence 1: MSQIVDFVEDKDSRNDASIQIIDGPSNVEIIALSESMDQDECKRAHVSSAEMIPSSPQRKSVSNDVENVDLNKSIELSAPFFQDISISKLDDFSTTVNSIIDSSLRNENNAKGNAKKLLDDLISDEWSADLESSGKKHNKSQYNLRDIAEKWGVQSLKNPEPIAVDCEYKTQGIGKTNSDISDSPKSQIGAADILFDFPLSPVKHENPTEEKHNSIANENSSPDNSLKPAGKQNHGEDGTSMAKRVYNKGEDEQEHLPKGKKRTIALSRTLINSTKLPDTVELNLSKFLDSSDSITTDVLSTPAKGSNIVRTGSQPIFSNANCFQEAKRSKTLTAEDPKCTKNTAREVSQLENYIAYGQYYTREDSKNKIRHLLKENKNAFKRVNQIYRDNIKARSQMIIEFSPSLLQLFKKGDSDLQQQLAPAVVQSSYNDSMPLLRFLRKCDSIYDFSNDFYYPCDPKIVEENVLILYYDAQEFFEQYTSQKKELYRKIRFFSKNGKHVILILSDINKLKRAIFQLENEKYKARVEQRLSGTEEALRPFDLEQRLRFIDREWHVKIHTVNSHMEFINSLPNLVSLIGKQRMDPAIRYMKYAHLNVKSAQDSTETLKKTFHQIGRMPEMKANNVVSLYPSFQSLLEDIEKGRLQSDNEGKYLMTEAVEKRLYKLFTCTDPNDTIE
T2 sequence 2: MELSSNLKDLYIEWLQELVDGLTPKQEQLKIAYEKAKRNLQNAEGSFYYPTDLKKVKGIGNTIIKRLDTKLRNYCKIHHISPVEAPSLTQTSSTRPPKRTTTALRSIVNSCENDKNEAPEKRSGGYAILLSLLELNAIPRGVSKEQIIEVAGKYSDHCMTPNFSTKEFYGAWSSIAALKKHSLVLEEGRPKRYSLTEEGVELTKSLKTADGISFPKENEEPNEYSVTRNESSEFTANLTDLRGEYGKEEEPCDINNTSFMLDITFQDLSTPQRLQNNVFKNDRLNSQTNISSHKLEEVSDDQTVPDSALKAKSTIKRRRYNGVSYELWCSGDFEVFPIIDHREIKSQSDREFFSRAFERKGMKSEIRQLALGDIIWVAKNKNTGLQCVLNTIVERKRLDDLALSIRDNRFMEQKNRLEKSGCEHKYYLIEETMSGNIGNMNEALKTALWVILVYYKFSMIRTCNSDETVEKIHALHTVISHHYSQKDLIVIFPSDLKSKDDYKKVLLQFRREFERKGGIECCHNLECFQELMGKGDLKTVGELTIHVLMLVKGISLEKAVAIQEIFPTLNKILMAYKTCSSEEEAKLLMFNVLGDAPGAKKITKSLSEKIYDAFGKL

B1: Cul8-FLAG (protein, UniProt P47050 1-842)
chain: MINESVSKREGFHESISRETSASNALGLYNKFNDERNPRYRTMIAELHEFFHLTLAETITETDVKELECNKEKAAKFRKLMPKMLNNCRELTQRKSYIPYNSEFNGNDEKQKKFQLLHQHQIVLSFQEFCDELAKLIIDAHVLSFLTRCDYSYEIIPKNWTSFYKLFQYVMGAVGPIISYVPVNYPMIRKELGFETLTIFQYYDSKLFECMKSHFGREFSTLVSATIHHYIHMFPITNTMLEKEVPMLRIMSNCNFSIEGLSPKDFYMKTLRQYYCEESNLRPRLETFKNFKVLLTRNALLASLFSPEWVSDANDLFISHLLLNKKSISEYIEIGKDTYDEEKERYFKTETHFSLLMFRNAFEAKNMLSKFKEFCDDAVSEKLKAAYGSNHDTERLFDEVVQLANVDHLKIYSDSIEYHLCNLLGSTSKAIEQYVKYFESHLFIIVRKIKTTKKDLPRDMKIKYLNENLPILRLKFVNLPTFPNFFERSIFRKTILQSDQNSSFIKDILPVYKDSLMELFKQRIITNVSQEDEMRYRDQYQPYLSQFFQPVEVMADLRIKYASFLSFYENIEAAVKFGKTYNENNSKSFFPLIFDRERIPKVFQQSNEVKKNFVLPQEMDDTWNQFLRNYHEQNKVEDSDASKKELYPMWNLHHCEVESPYIIQDGTNLIFELTLFQTCVLTLFNESDHLTLQVISEQTKLAYKDLALVLKSFCNYKILTRDIDNTYSINESFKPDMKKVKNGKLRVVLPRTASLQSSNTGGERTSSAHHEGSNSQWTQELLKACITRSVKSERNGLDYDHLFETVKQQIKGFSVGEFKDALAKLLRDKFITRDESTATYKY
B2: Mms1-FLAG (protein, UniProt Q06211 1-1407)
chain: MLGLRTHGLDRYEHYIRRPSDFGKLELQDWLNHKSFRVSPNLLIDSSTTREWNEPELFYQNTEDETWVRPCVGPKLEPSMMMLRYHDSNIGQMPQFCYPISSPINFKPVLKYILQERSELSDGFPQKYNTLIGSLFDIDKNPETLDDSDIEALDDIEMSSDSGNVKEPKIELQALEEIQQKHFSLIVSNNGIFQTGSTSITYIQSGISGSIAIKPNNVAILILLTQPSGHLLSILPLDDGKETYLLQYWNLGQKGQWNIIKHQNEKQFVLIHKELGICKFFEFHLPFTFQLVNNLTLTDSVIMNGSFFPTNYTDLDPYFIIFITAIRYERIVYFVIEWNNNEIKKKEVYQLTVFDGEKTNMTIPIGLNACLVETPLKFSLVSANQIMSGETEFHSFQLKALKGIKSFFPAPLLLLKLQELHPHTFKKFQYCTIISSSTGNICFCVTERSTIVNGNLKFYELTRFKGLKSISPLPSNPINLDSRSSSYVLVVISFSRTLELTLSLEDLRCLDKKDVIKPLKNITFKHTIDSSTEENSQILAFTSSKFYNTHTGSNINDTRNSQVWLTSPNAITQPCIDYKLRKTHQLIHLKQFQIFRHLRIWKCKNLDIALLQRLGINQSNTESSLIFATDAVSNNRIFLLDLTMTTTIDNDDPVQGLINIEDLLCDTENETILLNFTKNNLIQVTRDTIYIDPIGGDKELRKISPGWEFENVTYNDGILIVWNAGLGCVSYIENIDAVDESGALVSNLSSSKGMSKFFKQLGTVTSVNFQIKESTDDPTKYDIWILLPDCVIRTPFSDWISDSLDFSDVYILSVQQALINGPYFCSLDYESYFEVHTLQNNCFKKGSRCTSRVNFQGKDIKFRSFGVNQCLAFSAFEIFVINLTPIHDSRELDFYKLKLPHLGNNNSILEVCPDIENNQLFILYSDGLRILELSYLTSNNGNFLLKSTRSKNKKFLYLDKINRMLVLNQDLREWECIRLSDGKAVGLDSQLLKDDSEEILEIKELPIATEDNPLEKKTVLLISFTSSLKLVLLTAAKNKISNQIIDSYKLDNSRLLNHLVITPRGEIFFLDYKVMGTDNEMSFNKLKVTKHCIDQEERNNTTLRLTLETRFTFKSWSTVKTFTVVGDNIIATTNMGEKLYLIKDFSSSSDESRRVYPLEMYPDSKVQKIIPLNECCFVVAAYCGNRNDLDSRLIFYSLPTIKVGLNNETGSLPDEYGNGRVDDIFEVDFPEGFQFGTMALYDVLHGERHVNRYSEGIRSENDEAEVALRQRRNLLLFWRNHSSTPKPSLRRAATIVYEDHVSSRYFEDISSILGSTAMRTKRLSPYNAVALDKPIQDISYDPAVQTLYVLMADQTIHKFGKDRLPCQDEYEPRWNSGYLVSRRSIVKSDLICEVGLWNLSDNCKNTV
B3: FLAG-tagged Esc2 (protein, UniProt Q06340 1-456)
chain: T1 sequence (looked up)

Tests used:
GST-Esc2 = target: T1, GST-Esc2; assay: pull-down; about 5 ug GST-Esc2 immobilised on glutathione-Sepharose 4B, incubated with about 2.5 mg yeast total cell lysate at 4 °C for 2-3 h in Tris pH 7.5, 150 mM NaCl, 1 mM DTT, 1 mM EDTA, 10% glycerol, 0.1% Triton X-100; washes up to 350 mM NaCl; western blot; only the target purified
[1] = target: T2, Mus81-Mms4 complex with internal truncations Mms4 (Δ541-555) and Mus81 (Δ121-135) (S. cerevisiae (W303-derived yeast)); assay: co-IP; lysate of yeast with HA-tagged Mms4/Mus81 and FLAG-tagged Esc2; HA beads overnight at 4 °C; 50 mM HEPES, 50 mM KCl, 0.1% NP40, 1.5 mM MgCl2, 1.5 mM MnCl2, 10% glycerol; western blot

Binder	binding (GST-Esc2)	binding [1]
B1	binds	
B2	binds	
B3		binds
